Reference: PubChem BioAssay AID652054 (National Center for Advancing Translational Sciences (NCATS), 2013)
Out of some 360,000 compounds screened, about 9,100 (2.5%) were called active. The inconclusive results got no clear call from the source; some entries with a clear call stand among them for comparison. Rule as the data show it: active = max response below about -50%; inconclusive = no clear call, values can overlap the other calls; inactive = above that.

Sequences of proteins named here, by UniProt entry; tags and fusion partners are left off.
UniProt P35462, whole entry, looked up: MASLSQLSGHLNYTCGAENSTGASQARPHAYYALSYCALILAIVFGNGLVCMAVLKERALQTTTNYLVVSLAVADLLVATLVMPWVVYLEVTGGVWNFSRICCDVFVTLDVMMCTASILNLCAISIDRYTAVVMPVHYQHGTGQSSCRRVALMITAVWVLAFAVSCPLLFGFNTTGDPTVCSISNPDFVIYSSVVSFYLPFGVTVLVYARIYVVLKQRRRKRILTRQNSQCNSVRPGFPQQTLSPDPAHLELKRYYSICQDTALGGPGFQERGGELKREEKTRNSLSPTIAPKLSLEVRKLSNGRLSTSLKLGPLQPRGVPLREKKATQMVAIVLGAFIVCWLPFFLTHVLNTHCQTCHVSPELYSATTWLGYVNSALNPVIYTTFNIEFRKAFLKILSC

molecular target: D(3) dopamine receptor (Homo sapiens) (UniProt P35462); experiment: qHTS of D3 Dopamine Receptor Antagonist: qHTS; details: D3R cells, DiscoveRx beta-arrestin luminescence, antagonist mode; active compounds read low
Outline: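 Cells plated overnight at 1500 cells/well, then exposed to library compounds with dopamine controls for 90 minutes at 37 degrees C. DiscoveRx reagent added for 30–60 minutes at room temperature; luminescence read, quantitative HTS format.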
% is scaled to controls: 0 for no effect and ±100 for the full control effect.

| SMILES | max response, negative = inhibition |
| --- | --- |
| COc1cc(/C=C2\COC/C(=C\c3cc(OC)c(OC)c(OC)c3)C2=O)cc(OC)c1OC | active: -62.7% |
| Cc1cccc(NC(=O)c2cccc(NC(=O)c3ccco3)c2)c1C | inactive: 6.54% |
| CCCOC(=O)C(C)n1cnc2scc(-c3ccc(C)cc3)c2c1=O (centres undefined) | inconclusive: -39.6% |
| COC(=O)c1cc(S(=O)(=O)NCC2CCN(CCc3ccc(OC)cc3)CC2)cn1C | inconclusive: -37.4% |
| COc1ccccc1N(C(=O)Cn1nnc(-c2ccc(C)o2)n1)C(C(=O)NC1CCCC1)c1ccncc1 (centres undefined) | active: -53.1% |
| Cc1ncc([N+](=O)[O-])n1CCOC(=O)NC(NCc1cccnc1)C(Cl)(Cl)Cl (centres undefined) | inconclusive: -32.1% |
| CCCCSc1nc(C)c(C(C)=O)cc1C#N | active: -51.7% |
| O=C(NC1CCN(Cc2ccccc2)CC1)C(NS(=O)(=O)c1cccc2nsnc12)c1ccccc1 (centres undefined) | inconclusive: -38.3% |
| COc1ccccc1-c1cc(NC(C)=O)c2ncc(-c3ccccc3)n2c1 | inactive: 1.97% |
| Cc1ccc(-c2csc3ncn(CC#N)c(=O)c23)cc1C | inconclusive: -30.3% |
| CCOc1ccc(N(C(C)C(=O)N2CCCC2)S(C)(=O)=O)cc1 (centres undefined) | inactive: -0.271% |
| O=C(Nc1ccc(N2CCOCC2)c(Cl)c1)c1ccc([N+](=O)[O-])o1 | inconclusive: -43.5% |
| Cc1ccccc1C(=O)Nc1ccnn1C1CCN(Cc2c(C)n(C)c3ccccc23)CC1 | inconclusive: -40.8% |
| C[C@@H]1CN([C@H](C)CO)C(=O)c2cc(NC(=O)Cc3cn(C)c4ccccc34)ccc2O[C@H]1CN(C)S(=O)(=O)c1ccc(F)cc1 | inactive: -17.1% |
| Cc1ccc(/C(O)=C2/C(=O)C(=O)N(CCN3CCOCC3)C2c2ccccn2)cc1 (centres undefined) | inconclusive: -35.9% |
| OCC1(Cc2ccccc2)CCN(Cc2cc3ccccc3o2)CC1 | inconclusive: -39.9% |
| C/C(=N\Nc1cc(-c2ccccc2)nc(-c2ccc(Br)cc2)n1)c1cccc(N)c1 | inconclusive: -40.9% |
| COc1ccc(C(NC(C)=O)c2cc(Cl)c3cccnc3c2O)cc1 (centres undefined) | inconclusive: -41.2% |
| Brc1cccc(-c2nnc(SCc3nc4ccccc4[nH]3)o2)c1 | inconclusive: -31.7% |
| N#Cc1ccccc1S(=O)(=O)N1CCN(C(=O)C2CC(=O)N(c3ccc4c(c3)OCCO4)C2)CC1 (centres undefined) | inconclusive: -35.6% |
| COc1ccc(NC(=S)Nc2cccc(C)n2)cc1 | inconclusive: -32% |
| CC(NC(=O)c1cccc(Cn2cc([N+](=O)[O-])cn2)c1)c1ccc(C(C)(C)C)cc1 (centres undefined) | inactive: -13.1% |
| CC(C)NS(=O)(=O)c1ccc2c(c1)oc(=O)n2C | inconclusive: -32.6% |
| CCCCNC(=O)COC(=O)C1CCN(S(=O)(=O)c2ccc3c(c2)OCCO3)CC1 | inconclusive: -40.9% |
| COc1cccc(/C=N/Nc2cc(N3CCOCC3)ncn2)c1O | inconclusive: -41.7% |
| O=C(c1ccccc1)N1N=C(c2ccccc2O)CC1c1ccccc1 (centres undefined) | inactive: 16.5% |
| Cc1nc(N2CCN(C)CC2)c2c3c(sc2n1)CCCC3 | inconclusive: -34.6% |

| SMILES | max response, negative = inhibition |
| --- | --- |
| Cc1cc([N+](=O)[O-])cc(/C=N\NC(=O)C2COc3ccccc3O2)c1O (centres undefined) | inconclusive: -43.6% |
| CC(C)(C)c1ccc(OCCNC(=S)Nc2ccccc2)cc1 | inconclusive: -43.6% |
| Cc1ccc(C(=O)c2sc3nc4c(cc3c2N)CCC4)cc1 | inactive: 2.03% |
| CCCCCCCCN1C(=O)[C@H](CC(=O)N2CCSCC2)C[C@@]2(C(=O)OC)CC(C)(C)CC=C12 | inactive: -18.5% |
| CCc1cc(=O)oc2cc(C)cc(OCC(=O)NC3CCN(Cc4ccccc4)CC3)c12 | inconclusive: -34% |
| Cc1ccc(C(=O)n2c3ccccc3c3ccccc32)cc1 | inactive: -19.9% |
| CC1CCC(=O)N(CCOc2ccccc2)CC1 (centres undefined) | inactive: 40.6% |
| COc1ccccc1N1CCN(Cc2ccco2)CC1 | active: -76.1% |
| CC1(C(=O)NS(=O)(=O)c2ccccc2)CCN1C(=O)c1cccc2ccccc12 (centres undefined) | inconclusive: -46.8% |
| CCn1c(=O)cc(OCC(=O)NCCCN2CCN(c3cccc(Cl)c3)CC2)c2ccccc21 | active: -69.4% |
| CCN(CC)CC(=O)Nc1ccc(-c2ccc(NC(=O)CN(CC)CC)c(OC)c2)cc1OC | inconclusive: -42.6% |
| O=C(C[n+]1cccc(CNC(=O)c2ccc(OC(F)F)cc2)c1)c1ccccc1 | inactive: -9.69% |
| O=C(O)c1ccc(N=Nc2c(O)[nH]c3ccc(Br)cc23)cc1 | inactive: 27.9% |
| CCCc1c(C(=O)N/N=C(\C)c2ccccn2)nnn1-c1nonc1N | active: -84.9% |
| N#CC(C#N)=C1C=CC=CN1/C(=C\c1ccco1)C(=O)c1ccc(Cl)cc1 | active: -108% |
| CCCCCOc1ccc(NC(=O)C(=O)NCCC2=CCCCC2)cc1 | inconclusive: -42.3% |
| COc1ccc(CN2C(=O)C(C)Nc3ncnc(N4CCN(c5ccccn5)CC4)c32)cc1 (centres undefined) | active: -149% |
| O=[N+]([O-])c1cccc(-c2nc3ccccc3s/c2=N/O)c1 | inconclusive: -30.6% |
| CO/N=C/c1cccn1-c1nccc(N(C)C)c1C#N | inactive: 0% |
| COc1cc(C(=O)N/N=C/c2cc([N+](=O)[O-])cs2)cc(OC)c1OC | active: -50.1% |
| CC(=O)Nc1ccc(NS(=O)(=O)c2ccc(C)cc2)c([N+](=O)[O-])c1 | inconclusive: -46% |
| Cc1ccc(Oc2ccc(S(=O)(=O)N3CCOCC3)cc2C(N)=O)c(-n2nc3ccccc3n2)c1 | inconclusive: -37.7% |
| COc1ccc(CNC(=O)Cn2cnc3c(SC)nc(N)nc32)cc1 | inactive: 22.8% |
| Cc1cc(C(=O)N2CCc3ccccc32)ccc1[N+](=O)[O-] | inconclusive: -37.7% |
| Cc1cc(C(F)(F)F)nn1CC(=O)NNC(=S)Nc1cccc(Cl)c1 | inconclusive: -48.4% |
| CCN1C(=O)[C@H]2[C@@H](c3ccc(-c4ccccc4)c(OC)c3)N[C@@](CC(C)C)(C(=O)OC)[C@H]2C1=O | active: -51.2% |
| O=C(C1CCN(S(=O)(=O)c2ccccc2)CC1)N1CCN(c2ccccc2F)CC1 | inactive: -0.475% |

Rewritten comma-delimited: part of the list above
SMILES,"max response, negative = inhibition"
Cc1cc(C(F)(F)F)nn1CC(=O)NNC(=S)Nc1cccc(Cl)c1,inconclusive: -48.4%
O=C(C1CCN(S(=O)(=O)c2ccccc2)CC1)N1CCN(c2ccccc2F)CC1,inactive: -0.475%

Single entries from the entries so far.
max response, negative = inhibition, `O=C(C[n+]1cccc(CNC(=O)c2ccc(OC(F)F)cc2)c1)c1ccccc1` reads inactive: -9.69%
max response, negative = inhibition, `CC1(C(=O)NS(=O)(=O)c2ccccc2)CCN1C(=O)c1cccc2ccccc12` (centres undefined) reads inconclusive: -46.8%
